Data from PubChem BioAssay AID504810 (National Center for Advancing Translational Sciences (NCATS), 2011).
Out of some 330,000 compounds screened, about 670 (0.2%) were called active. Inconclusive means that the source gave no clear call. Such entries were picked first, then a sample of the others.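 How the source made its calls: active means activity change below a set negative limit, meaning inhibition stronger than a set level (cut at about -70% in these data); inconclusive means activity change between two set negative limits; inactive means the rest.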

Amino acid sequences for entries named in this document (tags omitted).
UniProt P16473, whole entry, looked up: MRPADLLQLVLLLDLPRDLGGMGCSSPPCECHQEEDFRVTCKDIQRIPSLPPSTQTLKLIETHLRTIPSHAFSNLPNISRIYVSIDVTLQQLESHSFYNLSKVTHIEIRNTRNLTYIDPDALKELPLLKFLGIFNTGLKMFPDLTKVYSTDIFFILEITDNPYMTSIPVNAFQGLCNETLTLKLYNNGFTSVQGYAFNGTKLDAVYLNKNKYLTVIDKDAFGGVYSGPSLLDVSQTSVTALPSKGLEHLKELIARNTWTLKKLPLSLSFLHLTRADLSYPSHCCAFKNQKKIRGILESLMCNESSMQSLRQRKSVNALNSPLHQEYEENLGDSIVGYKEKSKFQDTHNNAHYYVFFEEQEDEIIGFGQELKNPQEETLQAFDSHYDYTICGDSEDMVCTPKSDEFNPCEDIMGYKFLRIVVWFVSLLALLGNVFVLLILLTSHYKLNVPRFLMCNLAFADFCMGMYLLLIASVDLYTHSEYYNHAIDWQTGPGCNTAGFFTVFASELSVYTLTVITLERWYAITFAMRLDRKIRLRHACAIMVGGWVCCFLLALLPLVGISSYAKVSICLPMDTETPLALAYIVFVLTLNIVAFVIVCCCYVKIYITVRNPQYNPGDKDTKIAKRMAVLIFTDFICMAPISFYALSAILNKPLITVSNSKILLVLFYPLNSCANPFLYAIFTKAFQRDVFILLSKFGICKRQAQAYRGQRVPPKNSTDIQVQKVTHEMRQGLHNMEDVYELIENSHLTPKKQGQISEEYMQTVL

The compounds below were run against Thyrotropin receptor (Homo sapiens) (UniProt P16473) (assay: Antagonists of the Thyroid Stimulating Hormone Receptor: HTS campaign). Settings: TSHR-expressing cells, TSH-stimulated cAMP HTRF, 2 h; at 11.5 µM; active compounds read low.
Method in brief: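 Freshly harvested TSHR cells receive pin-tooled compound, then EC80 TSH at 4nM final. After 2 hours at 37 deg C, antibody in lysis buffer and cAMP-d2 are added; 30 minutes at ambient temperature precede the HTRF read.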
On the % scale 0 is the no-effect control and ±100 the full control effect.

Activity change, negative = inhibition, inactive:
CN(CC(=O)Nc1ccc(Cl)cc1)CC(=O)Nc1cccc(Br)c1 -5.31%
Cc1ccc(/C=c2\sc3nc(-c4ccco4)nn3c2=O)o1 8.37%
COc1ccc(NC(=S)Nc2cccc([N+](=O)[O-])c2)cc1 6.83%
c1ccc(CN2CCN(CCCNc3ccc4nnc(-c5ccccc5)n4n3)CC2)cc1 13.8%
CCCNC(=O)c1ccc2snnc2c1 5.26%

Activity change, negative = inhibition, active:
COc1ccc(Br)cc1/C=N/NC(=O)CN1CCCCC1 -122%
CC(=O)c1sc(NC(=O)C2(F)C(F)(F)C(F)(F)C(F)(F)C(F)(F)C2(F)F)nc1C -75.5%
COC(=O)CN1C(=O)COc2ccc(S(=O)(=O)N3CCCC3)cc21 -135%
COc1ccc(CCNC2=C(Cl)C(=O)N(CCc3ccc(OC)c(OC)c3)C2=O)cc1OC -73.8%

Activity change, negative = inhibition, inconclusive:
CCOC(=O)C1=C(N)Oc2cc(O)ccc2C1c1cccc([N+](=O)[O-])c1 (stereo not drawn) -54%
CC(=O)Nc1ccc(NC2=C/C(=N/S(=O)(=O)c3cccs3)c3ccccc3C2=O)cc1 -52.2%
COC(=O)c1ccc(O)c(Sc2cc(C(=O)OC)ccc2O)c1 -57.7%
CCCOc1ccc(-c2cc(C(=O)NCC3CCCO3)c3ccccc3n2)cc1 (stereo not drawn) -52.2%
C=C(C)C(=O)OCC(O)COc1ccc(C(C)(C)c2ccc(OCC(O)COC(=O)C(=C)C)cc2)cc1 (stereo not drawn) -60.2%
COC(=O)CSc1nc2c(c(-c3ccco3)c1C#N)CCCC2 -58.1%
Cc1cc(Br)ccc1NC(=O)c1cnc(N2CCN(c3ccccn3)CC2)c2ccccc12 -51.7%
O=C(O)c1ccc(S(=O)(=O)/N=C2\C=C(Nc3ccccc3F)C(=O)c3ccccc32)cc1 -63.8%
COc1ccc(NC(=O)c2ccc(Cl)c(S(=O)(=O)N3CCc4ccccc4C3)c2)cn1 -60.2%
O=S(=O)(c1cccs1)N1CCN(CC(O)COc2cc(Cl)ccc2Cl)CC1 (stereo not drawn) -50.3%
Cc1ccc(NC(=O)c2ccccc2NS(=O)(=O)c2ccc(Cl)s2)cc1 -59.9%
COc1ccccc1C(c1nnnn1Cc1ccco1)N1CCN(c2cccc(C)c2C)CC1 (stereo not drawn) -53.4%
CCc1ccc(-n2cccc2/C=C2/C(=N)N3C(=NC2=O)SN=C3S(C)(=O)=O)cc1 -50.3%
CSc1nc(C)nc(C2CC2)c1C#N -65.1%

Sorted by length of the SMILES (smallest number first): part of the list above.
Activity change, negative = inhibition, inconclusive:
COC(=O)CSc1nc2c(c(-c3ccco3)c1C#N)CCCC2 -58.1%
Cc1cc(Br)ccc1NC(=O)c1cnc(N2CCN(c3ccccn3)CC2)c2ccccc12 -51.7%
C=C(C)C(=O)OCC(O)COc1ccc(C(C)(C)c2ccc(OCC(O)COC(=O)C(=C)C)cc2)cc1 (stereo not drawn) -60.2%
